This is one part of the list. The calls rarely recur for the same compound in another form.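 Kinases, fused to nanoluciferase, were expressed in K562 cells; luminescence was measured every 4 h from 2 to 18 h as percent of control (DMSO = 100%, positive control = 0%). A time point is decreased if signal falls significantly (2 sigma). Hits were called by the authors by a rule that is not shown; the count of time points alone does not decide it.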
Key:
Assay in all cases: kinase-Nluc reporter destabilization hit call (1 = scored as downregulated) (binary); higher = compound decreases kinase abundance
Conditions in all cases: K562; 2-18 h
[1] = target: EGFR (UniProt P00533)
[2] = target: EGFR_G719S (UniProt P00533)
[3] = target: EGFR_G719S_T790M (UniProt P00533)
[4] = target: EGFR_L718V (UniProt P00533)
[5] = target: EGFR_L858R (UniProt P00533)
[6] = target: EGFR_L861Q (UniProt P00533)
[7] = target: EGFR_T790M (UniProt P00533)
[8] = target: EPHA2 (UniProt P29317)
[9] = target: ERBB3 (UniProt P21860)
[10] = target: ERBB4_R711C (clone: ERBB4_mut) (UniProt Q15303)
[11] = target: ERN1 (UniProt O75460)
[12] = target: FGFR1 (UniProt P11362)
[13] = target: FGFR2 (UniProt P21802)
[14] = target: FGFR3 (UniProt P22607)
[15] = target: FGR (UniProt P09769)
[16] = target: FLT3 (UniProt P36888)
[17] = target: FYN (UniProt P06241)
[18] = target: GSK3A (UniProt P49840)
[19] = target: HER2 (UniProt P04626)
[20] = target: INSRR (UniProt P14616)

Protein sequences, listed by entry. Tags and fused reporters are not part of them. Lines headed by an entry give the natural chain unless they say otherwise; changes in a name come on top.
UniProt P29317, whole entry: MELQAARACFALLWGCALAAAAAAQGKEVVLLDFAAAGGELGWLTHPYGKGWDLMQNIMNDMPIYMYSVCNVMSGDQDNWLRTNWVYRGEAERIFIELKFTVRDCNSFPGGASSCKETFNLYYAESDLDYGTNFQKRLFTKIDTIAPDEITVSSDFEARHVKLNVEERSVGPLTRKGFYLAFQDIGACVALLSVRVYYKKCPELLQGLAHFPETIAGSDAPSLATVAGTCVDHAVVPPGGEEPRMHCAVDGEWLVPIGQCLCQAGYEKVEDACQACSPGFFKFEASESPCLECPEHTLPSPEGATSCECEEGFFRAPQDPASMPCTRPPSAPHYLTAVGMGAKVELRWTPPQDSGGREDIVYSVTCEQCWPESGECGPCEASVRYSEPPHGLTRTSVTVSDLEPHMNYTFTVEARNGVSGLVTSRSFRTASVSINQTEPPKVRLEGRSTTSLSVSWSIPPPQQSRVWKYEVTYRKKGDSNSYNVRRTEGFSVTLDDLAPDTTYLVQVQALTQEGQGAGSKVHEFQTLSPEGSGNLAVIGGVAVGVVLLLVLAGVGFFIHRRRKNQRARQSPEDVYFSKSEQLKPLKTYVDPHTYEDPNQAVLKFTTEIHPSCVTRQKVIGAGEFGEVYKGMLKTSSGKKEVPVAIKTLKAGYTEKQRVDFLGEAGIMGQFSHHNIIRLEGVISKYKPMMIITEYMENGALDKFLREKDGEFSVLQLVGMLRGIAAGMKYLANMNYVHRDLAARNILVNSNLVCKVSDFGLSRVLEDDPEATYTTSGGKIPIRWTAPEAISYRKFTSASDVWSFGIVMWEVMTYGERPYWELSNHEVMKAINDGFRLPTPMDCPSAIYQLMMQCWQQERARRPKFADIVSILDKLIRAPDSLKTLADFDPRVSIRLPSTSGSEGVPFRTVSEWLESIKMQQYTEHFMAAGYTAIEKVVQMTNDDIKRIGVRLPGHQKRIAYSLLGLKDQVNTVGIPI
UniProt P21860, whole entry: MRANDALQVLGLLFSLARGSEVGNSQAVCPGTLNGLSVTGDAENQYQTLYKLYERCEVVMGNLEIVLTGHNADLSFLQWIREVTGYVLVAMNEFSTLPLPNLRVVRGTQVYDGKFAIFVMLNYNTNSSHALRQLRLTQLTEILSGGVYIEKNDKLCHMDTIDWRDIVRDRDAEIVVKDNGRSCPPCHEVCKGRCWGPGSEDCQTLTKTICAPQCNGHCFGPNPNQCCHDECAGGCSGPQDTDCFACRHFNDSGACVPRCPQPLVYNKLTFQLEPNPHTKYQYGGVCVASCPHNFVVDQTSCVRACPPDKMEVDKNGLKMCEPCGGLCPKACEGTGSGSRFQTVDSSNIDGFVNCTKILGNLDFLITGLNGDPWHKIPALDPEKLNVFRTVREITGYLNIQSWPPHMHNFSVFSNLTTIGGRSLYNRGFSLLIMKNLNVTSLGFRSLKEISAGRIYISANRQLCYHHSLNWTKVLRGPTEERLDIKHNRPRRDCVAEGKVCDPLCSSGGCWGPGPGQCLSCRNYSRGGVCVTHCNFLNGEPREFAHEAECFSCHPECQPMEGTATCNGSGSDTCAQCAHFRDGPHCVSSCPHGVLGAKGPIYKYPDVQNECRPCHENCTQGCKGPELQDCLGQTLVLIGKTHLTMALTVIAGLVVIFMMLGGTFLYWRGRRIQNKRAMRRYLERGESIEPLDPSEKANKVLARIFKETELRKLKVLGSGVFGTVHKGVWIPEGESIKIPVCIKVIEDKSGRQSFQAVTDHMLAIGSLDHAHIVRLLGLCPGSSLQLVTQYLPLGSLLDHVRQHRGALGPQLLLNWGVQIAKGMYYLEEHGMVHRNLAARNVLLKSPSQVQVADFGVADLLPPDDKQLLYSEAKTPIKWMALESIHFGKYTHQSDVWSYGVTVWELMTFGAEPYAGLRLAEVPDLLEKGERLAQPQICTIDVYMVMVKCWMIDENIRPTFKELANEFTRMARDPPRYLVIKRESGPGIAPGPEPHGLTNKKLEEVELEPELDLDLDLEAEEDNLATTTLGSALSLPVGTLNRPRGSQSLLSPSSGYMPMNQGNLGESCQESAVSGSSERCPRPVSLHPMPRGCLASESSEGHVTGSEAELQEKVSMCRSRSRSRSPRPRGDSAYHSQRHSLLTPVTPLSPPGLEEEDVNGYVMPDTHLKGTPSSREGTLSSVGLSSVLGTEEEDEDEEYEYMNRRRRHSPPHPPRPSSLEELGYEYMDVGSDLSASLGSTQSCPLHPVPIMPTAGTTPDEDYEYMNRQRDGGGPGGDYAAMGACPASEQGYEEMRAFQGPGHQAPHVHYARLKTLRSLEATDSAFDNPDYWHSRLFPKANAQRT
UniProt O75460: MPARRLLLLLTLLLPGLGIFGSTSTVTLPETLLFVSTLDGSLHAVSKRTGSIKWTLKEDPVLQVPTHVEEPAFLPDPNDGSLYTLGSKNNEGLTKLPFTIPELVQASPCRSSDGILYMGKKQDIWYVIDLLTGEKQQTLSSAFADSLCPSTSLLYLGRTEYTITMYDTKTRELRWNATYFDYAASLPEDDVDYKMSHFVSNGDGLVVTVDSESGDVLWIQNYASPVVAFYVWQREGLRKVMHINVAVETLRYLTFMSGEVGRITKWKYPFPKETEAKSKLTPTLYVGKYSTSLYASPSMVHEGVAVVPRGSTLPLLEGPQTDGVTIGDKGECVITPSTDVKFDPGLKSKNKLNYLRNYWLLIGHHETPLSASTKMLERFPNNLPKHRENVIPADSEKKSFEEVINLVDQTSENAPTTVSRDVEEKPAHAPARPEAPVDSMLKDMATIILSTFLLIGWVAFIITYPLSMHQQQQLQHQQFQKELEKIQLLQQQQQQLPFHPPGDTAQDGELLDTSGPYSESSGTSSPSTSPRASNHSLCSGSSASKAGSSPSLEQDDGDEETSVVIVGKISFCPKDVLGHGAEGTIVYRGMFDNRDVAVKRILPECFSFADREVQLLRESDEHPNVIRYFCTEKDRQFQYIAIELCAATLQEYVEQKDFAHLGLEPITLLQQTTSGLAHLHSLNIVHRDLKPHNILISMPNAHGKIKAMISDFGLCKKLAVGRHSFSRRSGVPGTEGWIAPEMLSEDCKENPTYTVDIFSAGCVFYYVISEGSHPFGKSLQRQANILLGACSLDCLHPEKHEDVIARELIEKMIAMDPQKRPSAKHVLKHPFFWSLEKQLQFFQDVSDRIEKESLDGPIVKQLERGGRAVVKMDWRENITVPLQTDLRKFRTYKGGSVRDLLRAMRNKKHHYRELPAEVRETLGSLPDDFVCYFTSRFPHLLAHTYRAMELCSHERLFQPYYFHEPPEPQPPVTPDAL
UniProt P11362, whole entry, looked up: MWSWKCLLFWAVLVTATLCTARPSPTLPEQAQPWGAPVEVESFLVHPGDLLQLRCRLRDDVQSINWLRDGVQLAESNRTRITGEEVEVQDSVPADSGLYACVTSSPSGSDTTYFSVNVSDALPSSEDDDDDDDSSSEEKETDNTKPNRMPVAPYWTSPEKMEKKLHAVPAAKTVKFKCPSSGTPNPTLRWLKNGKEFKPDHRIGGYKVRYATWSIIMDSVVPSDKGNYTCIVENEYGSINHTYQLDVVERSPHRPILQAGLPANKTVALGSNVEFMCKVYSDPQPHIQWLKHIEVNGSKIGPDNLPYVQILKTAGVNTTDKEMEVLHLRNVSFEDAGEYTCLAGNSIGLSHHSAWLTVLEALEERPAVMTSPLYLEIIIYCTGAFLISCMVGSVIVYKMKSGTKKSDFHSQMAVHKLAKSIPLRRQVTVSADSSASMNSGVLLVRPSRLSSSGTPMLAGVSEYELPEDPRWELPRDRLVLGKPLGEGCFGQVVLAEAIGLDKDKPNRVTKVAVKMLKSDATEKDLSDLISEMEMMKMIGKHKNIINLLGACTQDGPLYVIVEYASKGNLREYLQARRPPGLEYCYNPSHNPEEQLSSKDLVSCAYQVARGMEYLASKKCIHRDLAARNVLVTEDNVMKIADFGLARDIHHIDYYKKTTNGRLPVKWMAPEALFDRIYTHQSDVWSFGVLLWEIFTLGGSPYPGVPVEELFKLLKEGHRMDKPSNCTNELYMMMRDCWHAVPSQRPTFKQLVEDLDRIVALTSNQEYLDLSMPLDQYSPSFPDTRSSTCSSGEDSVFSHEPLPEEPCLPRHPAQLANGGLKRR
UniProt P22607, whole entry, looked up: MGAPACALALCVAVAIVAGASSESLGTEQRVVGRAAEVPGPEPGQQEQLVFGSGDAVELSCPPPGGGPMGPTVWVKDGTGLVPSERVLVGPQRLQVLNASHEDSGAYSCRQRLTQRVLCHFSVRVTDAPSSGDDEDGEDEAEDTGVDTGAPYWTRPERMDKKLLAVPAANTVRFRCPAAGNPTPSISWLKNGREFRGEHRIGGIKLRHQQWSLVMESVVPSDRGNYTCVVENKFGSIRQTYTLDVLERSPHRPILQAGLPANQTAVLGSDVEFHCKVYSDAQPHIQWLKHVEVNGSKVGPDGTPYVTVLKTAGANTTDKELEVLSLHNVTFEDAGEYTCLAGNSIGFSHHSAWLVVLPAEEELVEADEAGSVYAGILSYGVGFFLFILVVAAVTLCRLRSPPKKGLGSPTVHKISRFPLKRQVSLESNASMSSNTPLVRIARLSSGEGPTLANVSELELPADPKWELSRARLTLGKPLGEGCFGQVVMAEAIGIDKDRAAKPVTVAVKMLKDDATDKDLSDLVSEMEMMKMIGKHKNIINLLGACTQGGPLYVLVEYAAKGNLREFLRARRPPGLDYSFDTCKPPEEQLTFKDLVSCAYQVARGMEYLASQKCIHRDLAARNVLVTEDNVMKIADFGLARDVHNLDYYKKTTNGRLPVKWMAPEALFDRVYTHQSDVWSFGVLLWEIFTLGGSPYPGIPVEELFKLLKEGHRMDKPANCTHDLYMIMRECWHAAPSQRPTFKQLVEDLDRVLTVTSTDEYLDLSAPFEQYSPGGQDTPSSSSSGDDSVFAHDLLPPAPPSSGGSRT
UniProt P06241, whole entry, looked up: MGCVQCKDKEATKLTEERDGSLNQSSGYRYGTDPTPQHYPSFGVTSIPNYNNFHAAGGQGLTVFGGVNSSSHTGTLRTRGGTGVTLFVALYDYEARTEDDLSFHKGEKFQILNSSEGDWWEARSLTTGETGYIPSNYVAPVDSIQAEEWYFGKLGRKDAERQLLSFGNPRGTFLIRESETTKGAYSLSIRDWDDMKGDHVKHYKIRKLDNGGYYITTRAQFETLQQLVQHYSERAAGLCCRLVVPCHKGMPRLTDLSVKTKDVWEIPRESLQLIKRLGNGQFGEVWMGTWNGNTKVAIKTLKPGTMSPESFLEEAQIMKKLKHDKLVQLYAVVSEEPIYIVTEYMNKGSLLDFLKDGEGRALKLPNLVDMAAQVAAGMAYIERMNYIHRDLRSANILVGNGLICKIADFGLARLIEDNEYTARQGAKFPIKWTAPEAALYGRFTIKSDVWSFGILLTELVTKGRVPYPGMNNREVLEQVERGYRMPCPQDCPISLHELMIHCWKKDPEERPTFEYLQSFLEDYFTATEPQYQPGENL
UniProt P49840: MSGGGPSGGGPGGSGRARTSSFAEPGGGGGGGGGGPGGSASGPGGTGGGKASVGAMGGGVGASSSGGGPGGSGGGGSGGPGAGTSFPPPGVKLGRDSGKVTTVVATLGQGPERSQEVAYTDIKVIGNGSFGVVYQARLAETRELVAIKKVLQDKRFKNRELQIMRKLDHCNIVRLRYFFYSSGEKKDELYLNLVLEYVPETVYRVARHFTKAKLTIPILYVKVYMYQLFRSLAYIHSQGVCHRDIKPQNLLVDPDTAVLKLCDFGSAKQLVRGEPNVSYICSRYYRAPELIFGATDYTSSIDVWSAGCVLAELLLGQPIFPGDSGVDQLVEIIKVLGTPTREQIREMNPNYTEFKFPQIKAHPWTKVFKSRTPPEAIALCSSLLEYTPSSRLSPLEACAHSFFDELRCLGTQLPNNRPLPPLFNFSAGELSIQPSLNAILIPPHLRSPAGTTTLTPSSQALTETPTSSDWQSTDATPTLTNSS

Measured: kinase-Nluc reporter destabilization hit call

COc1ccccc1C(=O)/C=C/c1ccccc1C(=O)O (10 µM)
inactive: [1] 0 | [2] 0 | [3] 0 | [4] 0 | [5] 0 | [6] 0 | [7] 0 | [8] 0 | [9] 0 | [10] 0 | [11] 0 | [12] 0 | [13] 0 | [14] 0 | [15] 0 | [16] 0 | [17] 0 | [18] 0 | [19] 0 | [20] 0

C[C@@H]1COCCN1c1nc(-c2cnc(N)cc2C(F)F)nc(N2[C@H](C)COC[C@@H]2C)n1 (2.5 µM)
inactive: [1] 0 | [2] 0 | [3] 0 | [4] 0 | [5] 0 | [6] 0 | [7] 0 | [8] 0 | [9] 0 | [10] 0 | [11] 0 | [12] 0 | [13] 0 | [14] 0 | [15] 0 | [16] 0 | [17] 0 | [18] 0 | [19] 0 | [20] 0

Nc1nc(N)c2nc(-c3cccc(O)c3)cnc2n1 (10 µM)
inactive: [1] 0 | [2] 0 | [3] 0 | [4] 0 | [5] 0 | [6] 0 | [7] 0 | [8] 0 | [9] 0 | [10] 0 | [11] 0 | [12] 0 | [13] 0 | [14] 0 | [15] 0 | [16] 0 | [17] 0 | [18] 0 | [19] 0 | [20] 0

Cc1ccc(-c2csc3ncnc(SCCC(=O)O)c23)cc1 (10 µM)
inactive: [1] 0 | [2] 0 | [3] 0 | [4] 0 | [5] 0 | [6] 0 | [7] 0 | [8] 0 | [9] 0 | [10] 0 | [11] 0 | [12] 0 | [13] 0 | [14] 0 | [15] 0 | [16] 0 | [17] 0 | [18] 0 | [19] 0 | [20] 0

CCc1cccc(CC)c1NC(=O)N1Cc2[nH]nc(NC(=O)c3ccc(N4CCN(C)CC4)cc3)c2C1 (2.5 µM)
inactive: [1] 0 | [2] 0 | [3] 0 | [4] 0 | [5] 0 | [6] 0 | [7] 0 | [8] 0 | [9] 0 | [10] 0 | [11] 0 | [12] 0 | [13] 0 | [14] 0 | [15] 0 | [16] 0 | [17] 0 | [18] 0 | [19] 0 | [20] 0

CC[C@@](C)(Nc1ccnc(-c2c[nH]c3ncccc23)n1)C(=O)NCC(F)(F)F [Decernotinib] (10 µM)
inactive: [1] 0 | [2] 0 | [3] 0 | [4] 0 | [5] 0 | [6] 0 | [7] 0 | [8] 0 | [9] 0 | [10] 0 | [11] 0 | [12] 0 | [13] 0 | [14] 0 | [15] 0 | [16] 0 | [17] 0 | [18] 0 | [19] 0 | [20] 0

CN1C(=O)[C@@H](NC(=O)c2n[nH]c(Cc3ccccc3)n2)COc2ccccc21 (10 µM)
inactive: [1] 0 | [2] 0 | [3] 0 | [4] 0 | [5] 0 | [6] 0 | [7] 0 | [8] 0 | [9] 0 | [10] 0 | [11] 0 | [12] 0 | [13] 0 | [14] 0 | [15] 0 | [16] 0 | [17] 0 | [18] 0 | [19] 0 | [20] 0

Cc1cnc(-c2ccc(-c3ccc(NC(=O)Nc4cccc(C(F)(F)F)c4)cc3F)c3c2C(=O)NC3)[nH]1 (10 µM)
inactive: [1] 0 | [2] 0 | [3] 0 | [4] 0 | [5] 0 | [6] 0 | [7] 0 | [8] 0 | [9] 0 | [10] 0 | [11] 0 | [12] 0 | [13] 0 | [14] 0 | [15] 0 | [16] 0 | [17] 0 | [18] 0 | [19] 0 | [20] 0

Two compounds picked at random from the list so far, as already listed:
CC[C@@](C)(Nc1ccnc(-c2c[nH]c3ncccc23)n1)C(=O)NCC(F)(F)F [Decernotinib] (10 µM)
inactive: [1] 0 | [2] 0 | [3] 0 | [4] 0 | [5] 0 | [6] 0 | [7] 0 | [8] 0 | [9] 0 | [10] 0 | [11] 0 | [12] 0 | [13] 0 | [14] 0 | [15] 0 | [16] 0 | [17] 0 | [18] 0 | [19] 0 | [20] 0

CCc1cccc(CC)c1NC(=O)N1Cc2[nH]nc(NC(=O)c3ccc(N4CCN(C)CC4)cc3)c2C1 (2.5 µM)
inactive: [1] 0 | [2] 0 | [3] 0 | [4] 0 | [5] 0 | [6] 0 | [7] 0 | [8] 0 | [9] 0 | [10] 0 | [11] 0 | [12] 0 | [13] 0 | [14] 0 | [15] 0 | [16] 0 | [17] 0 | [18] 0 | [19] 0 | [20] 0

Later entries:

CC(C)(O)[C@H]1CC[C@H](Nc2ccc3ncc(-c4cccc(C(F)(F)F)c4)n3n2)CC1 (10 µM)
inactive: [1] 0 | [2] 0 | [3] 0 | [4] 0 | [5] 0 | [6] 0 | [7] 0 | [8] 0 | [9] 0 | [10] 0 | [11] 0 | [12] 0 | [13] 0 | [14] 0 | [15] 0 | [16] 0 | [17] 0 | [18] 0 | [19] 0 | [20] 0

CC(C)CCNC(=O)c1ccc2c(c1)nc(Nc1n[nH]c3ccc(-c4ccccc4OC(F)(F)F)cc13)n2C1CCC(O)CC1 (stereo not drawn) [IRAK inhibitor 4 (trans)] (10 µM)
inactive: [1] 0 | [2] 0 | [3] 0 | [4] 0 | [5] 0 | [6] 0 | [7] 0 | [8] 0 | [9] 0 | [10] 0 | [11] 0 | [12] 0 | [13] 0 | [14] 0 | [15] 0 | [16] 0 | [17] 0 | [18] 0 | [19] 0 | [20] 0

FC(F)(F)c1ccc(/C=C/c2nc(COc3ccc(CCCCn4ccnn4)cc3)co2)cc1 [Mubritinib] (10 µM)
inactive: [1] 0 | [2] 0 | [3] 0 | [4] 0 | [5] 0 | [6] 0 | [7] 0 | [8] 0 | [9] 0 | [10] 0 | [11] 0 | [12] 0 | [13] 0 | [14] 0 | [15] 0 | [16] 0 | [17] 0 | [18] 0 | [19] 0 | [20] 0

O=[N+]([O-])c1ccc2c(c1)S(=O)(=O)C=C2 [Stattic] (2.5 µM)
inactive: [1] 0 | [2] 0 | [3] 0 | [4] 0 | [5] 0 | [6] 0 | [7] 0 | [8] 0 | [9] 0 | [10] 0 | [11] 0 | [12] 0 | [13] 0 | [14] 0 | [15] 0 | [16] 0 | [17] 0 | [18] 0 | [19] 0 | [20] 0

CNc1cc(Nc2cccn(-c3ccccn3)c2=O)nn2c(C(=O)N[C@@H]3C[C@@H]3F)cnc12 (2.5 µM)
inactive: [1] 0 | [2] 0 | [3] 0 | [4] 0 | [5] 0 | [6] 0 | [7] 0 | [8] 0 | [9] 0 | [10] 0 | [11] 0 | [12] 0 | [13] 0 | [14] 0 | [15] 0 | [16] 0 | [17] 0 | [18] 0 | [19] 0 | [20] 0

O=C1NC(=Nc2c(Cl)cccc2Cl)S/C1=C\c1ccc2nccnc2c1 (2.5 µM)
inactive: [1] 0 | [2] 0 | [3] 0 | [4] 0 | [5] 0 | [6] 0 | [7] 0 | [8] 0 | [9] 0 | [10] 0 | [11] 0 | [12] 0 | [13] 0 | [14] 0 | [15] 0 | [16] 0 | [17] 0 | [18] 0 | [19] 0 | [20] 0

O=C(CNc1cccc(Cl)c1)NC1CCCN(c2ncnc3[nH]ccc23)C1 (stereo not given) (10 µM)
inactive: [1] 0 | [2] 0 | [3] 0 | [4] 0 | [5] 0 | [6] 0 | [7] 0 | [8] 0 | [9] 0 | [10] 0 | [11] 0 | [12] 0 | [13] 0 | [14] 0 | [15] 0 | [16] 0 | [17] 0 | [18] 0 | [19] 0 | [20] 0

O=C(Nc1nc(=O)n(Cc2ccc(Cl)cc2)s1)c1ccc(Cl)cc1 (10 µM)
inactive: [1] 0 | [2] 0 | [3] 0 | [4] 0 | [5] 0 | [6] 0 | [7] 0 | [8] 0 | [9] 0 | [10] 0 | [11] 0 | [12] 0 | [13] 0 | [14] 0 | [15] 0 | [16] 0 | [17] 0 | [18] 0 | [19] 0 | [20] 0

C[C@H](NC(=O)[C@H]1NCC[C@@H]1O)c1ccc(-c2noc(CCC3CCCC3)n2)cc1 (10 µM)
inactive: [1] 0 | [2] 0 | [3] 0 | [4] 0 | [5] 0 | [6] 0 | [7] 0 | [8] 0 | [9] 0 | [10] 0 | [11] 0 | [12] 0 | [13] 0 | [14] 0 | [15] 0 | [16] 0 | [17] 0 | [18] 0 | [19] 0 | [20] 0

COc1c(Nc2cc(C)[nH]n2)nc(Sc2ccc(S(=O)(=O)Cc3cccc([N+](=O)[O-])c3F)cc2F)nc1N1CCCCC1 [Centrinone-B] (2.5 µM)
inactive: [1] 0 | [2] 0 | [3] 0 | [4] 0 | [5] 0 | [6] 0 | [7] 0 | [8] 0 | [9] 0 | [10] 0 | [11] 0 | [12] 0 | [13] 0 | [14] 0 | [15] 0 | [16] 0 | [17] 0 | [18] 0 | [19] 0 | [20] 0
